# The whole screen tested about 330,000 compounds, of which about 7,700 (2.3%) were called active. Inconclusive results, whose numbers are uncertain, are shown with a selection of clear calls. Calls follow the shape of the dose curve; as a rule, active = well fitted inhibition curve with a large enough effect; inconclusive = small, poorly fitted or top-dose-only effect, or effect the other way; inactive = flat fitted curve, though single readings scatter. A potency beside an inconclusive call is a rough fit, not a confirmed value.
# Experiment: qHTS screen for small molecules that inhibit ELG1-dependent DNA repair in human embryonic kidney (HEK293T) cells expressing luciferase-tagged ELG1; also: nearly all actives have a fitted effect of over 55% in size
# Settings: HEK293T ELG1-luciferase reporter, luminescence, 16 h, DNA damage induced by 5-fluorouridine; activity change, negative = inhibition: at 46.1 µM (top of the series)
# Outline: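 Cells (2,000 per well) received 5-fluorouridine plus test compound or DMSO and were incubated 16 hr at 37 °C, 5% CO2. Luciferase activity was read by luminescence 30 min after ONE-Glo addition; signal suppression marked inhibition of damage-induced ELG1 function.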
# % is scaled to controls: 0 for no effect and ±100 for the full control effect; potency is read from the fitted curve at half-maximal effect.
Structure (SMILES),Potency,"activity change, negative = inhibition"
Nc1ccc2nc3c(c(Cl)c2c1)CCCC3,"inconclusive: 23.1 µM [activator, single point]",–
COC(=O)c1ccc(COc2cc(C)cc3oc(=O)c4c(c23)CCCC4)o1,"inconclusive: 18.4 µM [inhibitor, partial curve, poor fit]",–
O=C1NC(=O)N(c2ccc(Cl)cc2)C(=O)/C1=C/c1coc2ccc(O)cc2c1=O,–,inactive: 17.3%
CN(C)c1ccc(P(=O)(Nc2ccc([N+](=O)[O-])cc2)N2CCOCC2)c(NC(=O)c2cccs2)c1 (stereo not drawn),"inconclusive: 20.6 µM [inhibitor, single point]",–
C=CC1CN2CCC1CC2C(OC(C)=O)c1ccnc2ccc(OC)cc12 (stereo not drawn),–,inactive: 1.78%
Cc1nn(Cc2ccccc2Cl)c(C)c1C(=O)OCC(=O)NC1CCCC(C)C1C (stereo not drawn),"inconclusive: 18.4 µM [inhibitor, partial curve]",–
Nc1nnc(P(c2ccccc2)c2ccccc2)s1,"inconclusive: 29.1 µM [inhibitor, single point]",–
O=C1/C(=C\c2ccc(Cl)c(Cl)c2)N2CCC1CC2,–,inactive: 6.77%
O=C(CCc1nnc(CCCCc2ccccc2)o1)N1CCCC(O)C1 (stereo not drawn),"inconclusive: 9.2 µM [activator, partial curve, poor fit]",–
COC(=O)[C@@H]1C[C@H]1[C@@H](NP(=O)(c1ccccc1)c1ccccc1)c1ccccc1,"inconclusive: 11.6 µM [activator, partial curve]",–
COC(=O)C1C(=O)C=C(Nc2ccc(F)cc2F)CC1c1ccccc1 (stereo not drawn),"inconclusive: 18.4 µM [activator, single point]",–
COc1cc(/C=N/NC(=O)CN2CCCCC2)ccc1OCc1ccccc1,"inconclusive: 18.4 µM [activator, partial curve]",–
CC(C)(C)c1ccc(OCCON2C(=O)CCC2=O)c(Cl)c1,"inconclusive: 23.1 µM [activator, partial curve]",–
CCc1cc(=O)oc2cc(C)cc(OCC(=O)N3CCC(C(=O)O)(c4ccccc4)CC3)c12,"inconclusive: 4.11 µM [inhibitor, single point]",–
Cc1ccc(/C=C2\C(=O)NC(=S)N(c3ccc(F)cc3)C2=O)s1,"inconclusive: 14.6 µM [activator, partial curve]",–
CC(=O)Nc1ccccc1C(=O)OCc1cccc(F)c1,"inconclusive: 16.4 µM [activator, partial curve]",–
COc1ccc(/C=C2/C(=O)NC(=O)N(C3CCCCC3)C2=O)cc1CSc1ccccn1,–,inactive: 11.9%
CC(C)c1ccc(C2NCc3ccccc3-n3cccc32)cc1 (stereo not drawn),–,inactive: -13.5%
Cc1cc(/C=C2\C(=O)NC(=O)N(c3ccccc3)C2=O)c(C)n1-c1ccc(C(=O)O)c(Cl)c1,–,inactive: -2.37%
O=C(c1ccc(F)cc1)C(Cc1ccccc1)N1CCCCC1 (stereo not drawn),"inconclusive: 18.3 µM [activator, single point]",–
COc1ccc2c3c([nH]c2c1)C(C)NCC3 (stereo not drawn),–,inactive: 0.444%
COc1cccc(CNCCc2ccc(F)cc2)c1,–,inactive: -0.624%

Structure (SMILES),Potency,"activity change, negative = inhibition"
COc1cc(CC2C(=O)N(C)C(=O)N(C)C2=O)ccc1OCc1ccccc1,"inconclusive: 29.1 µM [activator, single point]",–
O=C(c1ccccc1F)N1CCN(Cc2nc3sc4c(c3c(=O)[nH]2)CCCC4)CC1,active: 16.4 µM,–
CCCCCn1c(=O)c(C(=O)Nc2nc(CC(=O)OCC)cs2)c(O)c2ccccc21,"inconclusive: 5.17 µM [inhibitor, full curve]",–
CC1=CC(=C2C(=O)NC(=S)NC2=O)C=C(C(F)(F)F)N1Cc1ccccc1,"inconclusive: 1.46 µM [inhibitor, partial curve, poor fit]",–
CNC(=O)O/N=C(\N)Cc1csc2ccc(Cl)cc12,"inconclusive: 14.6 µM [activator, partial curve]",–
CC[C@@]1(O)C(=O)OCc2c1cc1n(c2=O)Cc2cc3c(N)cccc3nc2-1,"inconclusive: 0.058 µM [inhibitor, full curve, poor fit]",–
CCNC(=S)NCCC1=c2ccccc2=N/C1=C\c1c(O)n(C)c(=O)n(C)c1=O,"inconclusive: 29.1 µM [activator, single point]",–
CCCCOC(=O)n1c(=O)oc2ccccc21,"inconclusive: 16.4 µM [activator, partial curve]",–
CNC(=O)c1cccn(Cc2cc(C(F)(F)F)cc(C(F)(F)F)c2)c1=O,active: 6.51 µM,–
CCOC(=O)c1c(C)[nH]c(C)c1C(=O)C(Cc1ccccc1)N(C)C (stereo not drawn),–,inactive: 1.41%
O=c1c2cc(N3CCOCC3)ccc2[nH]c(=S)n1Cc1ccc(Cl)cc1,"inconclusive: 1.84 µM [activator, partial curve, poor fit]",–
COC(=O)C1=C(c2cccc(Cl)c2)C[C@@H]2CC[C@H]1N2C(=O)N1CCCC1,–,inactive: 0.177%
Clc1ccc(-c2nc3ccc(Cl)cn3c2CN2CCOCC2)cc1,"inconclusive: 18.4 µM [inhibitor, single point]",–
CC(=O)N(C1=NCCCS1)c1ccc(Cl)cc1,"inconclusive: 2.31 µM [inhibitor, partial curve, poor fit]",–
COc1ccccc1OCCCn1cc(C(C)=O)c2ccccc21,"inconclusive: 20.6 µM [inhibitor, partial curve, poor fit]",–
COC1CC(OC2CCC3(C)C(CCC4C3CCC3(C)C(C5=CC(=O)OC5)C(OC(C)=O)CC43O)C2)OC(C)C1OC1OC(COC2OC(CO)C(O)C(O)C2O)C(O)C(O)C1O (stereo not drawn),active: 2.91 µM,–
BrCC(Br)C1CCC(Br)C(Br)C1 (stereo not drawn),–,inactive: 12.9%
CC(C)(C)n1cc(C(=O)c2ccc3ccccc3c2O)cn1,"inconclusive: 2.31 µM [activator, partial curve]",–
C[C@H](CO)N1C[C@H](C)[C@H](CN(C)C(=O)Nc2cccc3ccccc23)Oc2c(NC(=O)c3ccc(-c4nccs4)cc3)cccc2C1=O,–,inactive: -8.2%
O=c1c2ccccc2nc(-c2ccc(Cl)cc2Cl)n1-c1nccs1,–,inactive: 4.32%
Cc1ccc(-c2nn3c(C)nnc3c3ccccc23)cc1S(=O)(=O)NCCO,"inconclusive: 18.3 µM [activator, partial curve]",–

# Among those listed so far, these have a COOH group:
Structure (SMILES),Potency,"activity change, negative = inhibition"
CCc1cc(=O)oc2cc(C)cc(OCC(=O)N3CCC(C(=O)O)(c4ccccc4)CC3)c12,"inconclusive: 4.11 µM [inhibitor, single point]",–
Cc1cc(/C=C2\C(=O)NC(=O)N(c3ccccc3)C2=O)c(C)n1-c1ccc(C(=O)O)c(Cl)c1,–,inactive: -2.37%
